These are yes or no findings as the source states them, for the method shown. In cells and extracts the contact can be indirect. A yes stands for co-enrichment or nearness to the bait. Other partners may have been found. For part of these data: No binding means not detected with the bait. For part of these data: Sequences can lack the tags named with a protein.
What was measured:
Experiment in all cases: affinity purification with mass spectrometry; U2OS FLAG-HA-FAM134A, -FAM134B and -FAM134C doxycycline-inducible cells; anti-HA agarose IP of lysates (50 mM tris-HCl pH 8.0, 120 mM NaCl, 1% NP-40), label-free LC-MS/MS
FLAG-HA-FAM134B = FLAG-HA-FAM134B (UniProt Q9H6L5)
HA-FAM134C-WT = HA-FAM134C-WT (UniProt Q86VR2)
FLAG-HA-FAM134A = target: T1, FLAG-HA-FAM134A (UniProt Q8NC44)
T1 sequence: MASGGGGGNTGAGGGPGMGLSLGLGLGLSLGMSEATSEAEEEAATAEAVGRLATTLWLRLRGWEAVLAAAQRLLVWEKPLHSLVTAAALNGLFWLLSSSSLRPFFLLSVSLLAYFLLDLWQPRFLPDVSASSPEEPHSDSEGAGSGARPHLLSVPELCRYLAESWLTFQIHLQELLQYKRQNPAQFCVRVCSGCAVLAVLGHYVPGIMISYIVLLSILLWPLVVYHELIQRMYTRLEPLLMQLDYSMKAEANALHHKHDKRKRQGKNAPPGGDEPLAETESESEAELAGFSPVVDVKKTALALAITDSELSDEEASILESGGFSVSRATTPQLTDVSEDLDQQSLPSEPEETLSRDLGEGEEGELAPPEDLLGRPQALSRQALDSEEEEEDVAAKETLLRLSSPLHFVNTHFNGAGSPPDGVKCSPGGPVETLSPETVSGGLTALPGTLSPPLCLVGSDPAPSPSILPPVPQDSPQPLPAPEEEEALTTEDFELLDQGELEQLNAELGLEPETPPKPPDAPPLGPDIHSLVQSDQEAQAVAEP

Amino acid sequences for entries named in this document (tags omitted).
UniProt Q9H6L5: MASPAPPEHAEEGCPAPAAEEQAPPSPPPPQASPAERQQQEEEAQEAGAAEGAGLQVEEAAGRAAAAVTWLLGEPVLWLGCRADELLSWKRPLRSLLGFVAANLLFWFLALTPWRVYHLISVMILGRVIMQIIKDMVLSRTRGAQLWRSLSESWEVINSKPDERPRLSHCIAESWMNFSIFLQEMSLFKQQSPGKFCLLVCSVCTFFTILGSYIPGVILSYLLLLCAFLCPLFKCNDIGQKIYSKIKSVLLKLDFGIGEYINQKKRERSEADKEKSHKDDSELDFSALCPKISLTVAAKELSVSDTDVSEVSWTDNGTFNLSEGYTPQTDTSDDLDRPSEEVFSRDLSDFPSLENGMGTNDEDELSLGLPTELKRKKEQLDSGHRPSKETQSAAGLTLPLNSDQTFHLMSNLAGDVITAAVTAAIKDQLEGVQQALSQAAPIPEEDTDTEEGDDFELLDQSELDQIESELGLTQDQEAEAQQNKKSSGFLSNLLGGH
UniProt P68400: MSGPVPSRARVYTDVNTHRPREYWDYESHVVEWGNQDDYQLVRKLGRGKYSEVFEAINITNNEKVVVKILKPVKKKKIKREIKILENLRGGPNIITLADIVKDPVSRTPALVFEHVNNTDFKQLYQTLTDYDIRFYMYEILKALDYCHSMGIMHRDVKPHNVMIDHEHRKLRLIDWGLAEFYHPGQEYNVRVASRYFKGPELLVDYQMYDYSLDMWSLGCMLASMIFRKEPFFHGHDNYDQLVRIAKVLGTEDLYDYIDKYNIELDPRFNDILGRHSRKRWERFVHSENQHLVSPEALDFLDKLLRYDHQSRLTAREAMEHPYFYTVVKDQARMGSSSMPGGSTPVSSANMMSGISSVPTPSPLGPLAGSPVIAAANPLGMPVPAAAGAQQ
UniProt P67870: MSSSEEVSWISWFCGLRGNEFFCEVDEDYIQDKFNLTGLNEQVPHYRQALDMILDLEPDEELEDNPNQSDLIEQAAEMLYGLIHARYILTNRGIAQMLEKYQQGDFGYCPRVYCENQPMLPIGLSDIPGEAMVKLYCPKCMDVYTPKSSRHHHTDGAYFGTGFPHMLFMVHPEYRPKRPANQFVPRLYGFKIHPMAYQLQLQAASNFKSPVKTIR

binding (FLAG-HA-FAM134B)	binding (HA-FAM134C-WT)	binding (FLAG-HA-FAM134A)	Substance
no binding	binds	no binding	CK2 α subunit (from UniProt P68400 1-391) (enzyme)
no binding	binds	no binding	CK2 α^I subunit (from UniProt P19784 1-350) (enzyme)
no binding	binds	no binding	CK2 β subunit (from UniProt P67870 1-215)
